# Results are given in words; binding and its absence hold for the method and conditions named. Binding seen in cells or lysates may run through a third protein. A yes stands for co-enrichment or nearness to the bait. Other partners may have been found. A no says only that the protein was not detected with the bait.
# Amino acid sequences for entries named in this document (tags omitted). A change or cut given only in a name is not applied to a line headed by its entry.
# UniProt P25439: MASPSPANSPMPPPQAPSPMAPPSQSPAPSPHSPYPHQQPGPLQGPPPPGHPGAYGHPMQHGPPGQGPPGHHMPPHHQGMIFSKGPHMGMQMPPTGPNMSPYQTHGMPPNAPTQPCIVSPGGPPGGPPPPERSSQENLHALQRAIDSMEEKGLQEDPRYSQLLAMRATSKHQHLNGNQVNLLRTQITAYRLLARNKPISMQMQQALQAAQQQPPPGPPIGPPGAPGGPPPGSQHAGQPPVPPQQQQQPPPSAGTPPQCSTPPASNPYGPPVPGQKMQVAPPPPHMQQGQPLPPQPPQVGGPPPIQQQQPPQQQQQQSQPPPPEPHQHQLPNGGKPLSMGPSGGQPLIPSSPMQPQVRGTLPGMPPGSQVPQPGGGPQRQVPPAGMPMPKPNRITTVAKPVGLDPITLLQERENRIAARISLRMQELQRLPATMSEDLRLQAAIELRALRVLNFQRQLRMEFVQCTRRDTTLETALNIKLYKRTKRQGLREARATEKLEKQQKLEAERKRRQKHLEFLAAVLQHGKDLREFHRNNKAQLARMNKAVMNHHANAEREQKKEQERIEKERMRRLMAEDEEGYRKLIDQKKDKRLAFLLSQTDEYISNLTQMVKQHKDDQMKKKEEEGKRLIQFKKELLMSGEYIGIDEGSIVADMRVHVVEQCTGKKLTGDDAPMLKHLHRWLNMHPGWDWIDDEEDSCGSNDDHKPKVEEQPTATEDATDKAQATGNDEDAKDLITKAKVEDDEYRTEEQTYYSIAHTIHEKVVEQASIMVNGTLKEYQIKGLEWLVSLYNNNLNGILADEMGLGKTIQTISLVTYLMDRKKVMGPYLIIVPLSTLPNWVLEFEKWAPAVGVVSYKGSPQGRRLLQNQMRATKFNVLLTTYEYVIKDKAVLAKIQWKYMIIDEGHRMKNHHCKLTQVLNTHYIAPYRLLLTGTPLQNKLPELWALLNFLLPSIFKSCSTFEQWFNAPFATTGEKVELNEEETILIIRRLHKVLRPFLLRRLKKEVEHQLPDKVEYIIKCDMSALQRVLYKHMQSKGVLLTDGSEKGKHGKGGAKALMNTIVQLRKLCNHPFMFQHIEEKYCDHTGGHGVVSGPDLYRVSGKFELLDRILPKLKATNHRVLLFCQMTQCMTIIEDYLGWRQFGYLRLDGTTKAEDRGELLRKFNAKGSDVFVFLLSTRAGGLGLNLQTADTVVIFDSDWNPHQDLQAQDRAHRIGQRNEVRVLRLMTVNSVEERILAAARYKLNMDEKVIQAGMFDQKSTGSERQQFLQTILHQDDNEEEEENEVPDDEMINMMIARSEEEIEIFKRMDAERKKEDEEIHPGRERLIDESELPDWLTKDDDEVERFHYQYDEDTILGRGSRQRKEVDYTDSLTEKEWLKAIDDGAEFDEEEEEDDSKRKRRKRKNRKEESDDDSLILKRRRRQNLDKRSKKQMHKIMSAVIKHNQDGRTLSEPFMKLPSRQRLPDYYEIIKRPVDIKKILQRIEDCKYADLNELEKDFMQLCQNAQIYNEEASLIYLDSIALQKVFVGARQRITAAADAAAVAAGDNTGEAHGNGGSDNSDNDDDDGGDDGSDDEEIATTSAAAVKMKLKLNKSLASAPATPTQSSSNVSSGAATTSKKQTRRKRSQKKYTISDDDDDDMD
# UniProt Q7PLI2: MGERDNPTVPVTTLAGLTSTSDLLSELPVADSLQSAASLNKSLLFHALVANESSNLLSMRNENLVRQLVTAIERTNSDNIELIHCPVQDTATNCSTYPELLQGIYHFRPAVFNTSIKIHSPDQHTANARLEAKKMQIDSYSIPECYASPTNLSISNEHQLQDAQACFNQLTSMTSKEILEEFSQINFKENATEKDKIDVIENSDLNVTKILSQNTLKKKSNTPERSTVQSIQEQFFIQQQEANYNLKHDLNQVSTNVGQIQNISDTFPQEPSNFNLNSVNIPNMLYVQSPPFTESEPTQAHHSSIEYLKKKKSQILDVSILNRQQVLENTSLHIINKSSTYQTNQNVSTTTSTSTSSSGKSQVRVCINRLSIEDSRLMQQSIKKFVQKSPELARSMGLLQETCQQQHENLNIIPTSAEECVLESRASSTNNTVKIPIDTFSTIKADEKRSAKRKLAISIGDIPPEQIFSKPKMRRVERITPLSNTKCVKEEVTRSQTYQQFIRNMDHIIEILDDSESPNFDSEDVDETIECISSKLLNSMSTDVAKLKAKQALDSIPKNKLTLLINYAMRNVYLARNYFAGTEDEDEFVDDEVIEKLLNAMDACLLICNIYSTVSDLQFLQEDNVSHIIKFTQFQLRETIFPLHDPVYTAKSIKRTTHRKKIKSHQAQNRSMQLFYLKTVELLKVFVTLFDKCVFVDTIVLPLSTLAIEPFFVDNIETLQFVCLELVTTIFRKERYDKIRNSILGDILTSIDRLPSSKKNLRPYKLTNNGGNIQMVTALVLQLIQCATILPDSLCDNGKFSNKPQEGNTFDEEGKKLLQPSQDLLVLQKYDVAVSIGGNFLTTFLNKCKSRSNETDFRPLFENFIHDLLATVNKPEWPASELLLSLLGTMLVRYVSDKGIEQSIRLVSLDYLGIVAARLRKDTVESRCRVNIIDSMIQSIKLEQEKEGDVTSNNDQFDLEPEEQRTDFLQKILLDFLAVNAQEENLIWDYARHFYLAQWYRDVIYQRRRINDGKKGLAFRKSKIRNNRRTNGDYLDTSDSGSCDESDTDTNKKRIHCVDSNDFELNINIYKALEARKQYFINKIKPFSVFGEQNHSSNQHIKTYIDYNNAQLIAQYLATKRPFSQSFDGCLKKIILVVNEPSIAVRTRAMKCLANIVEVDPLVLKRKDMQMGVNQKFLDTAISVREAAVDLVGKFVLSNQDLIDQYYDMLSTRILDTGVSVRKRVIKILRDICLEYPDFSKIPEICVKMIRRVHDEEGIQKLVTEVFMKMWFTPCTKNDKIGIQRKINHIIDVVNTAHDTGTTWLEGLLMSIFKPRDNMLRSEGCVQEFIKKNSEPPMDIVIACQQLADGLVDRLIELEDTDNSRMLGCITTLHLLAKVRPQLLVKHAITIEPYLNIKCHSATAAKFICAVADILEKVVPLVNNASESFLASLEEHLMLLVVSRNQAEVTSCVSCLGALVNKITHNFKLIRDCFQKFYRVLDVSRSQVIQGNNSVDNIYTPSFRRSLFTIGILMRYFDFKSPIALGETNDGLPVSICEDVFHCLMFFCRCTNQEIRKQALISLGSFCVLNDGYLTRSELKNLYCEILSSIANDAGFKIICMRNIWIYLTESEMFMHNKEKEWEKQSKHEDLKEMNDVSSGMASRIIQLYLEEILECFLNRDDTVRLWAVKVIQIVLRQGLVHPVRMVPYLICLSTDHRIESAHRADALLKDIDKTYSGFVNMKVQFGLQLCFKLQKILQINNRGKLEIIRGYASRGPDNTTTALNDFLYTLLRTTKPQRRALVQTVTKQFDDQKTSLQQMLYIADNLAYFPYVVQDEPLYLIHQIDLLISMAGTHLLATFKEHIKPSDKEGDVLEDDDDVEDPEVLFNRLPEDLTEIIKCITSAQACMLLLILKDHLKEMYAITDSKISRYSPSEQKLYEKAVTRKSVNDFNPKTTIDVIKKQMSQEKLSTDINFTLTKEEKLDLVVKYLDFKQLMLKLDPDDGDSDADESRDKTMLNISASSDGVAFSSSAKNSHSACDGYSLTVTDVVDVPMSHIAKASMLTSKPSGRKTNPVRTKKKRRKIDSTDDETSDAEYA
# UniProt P35820: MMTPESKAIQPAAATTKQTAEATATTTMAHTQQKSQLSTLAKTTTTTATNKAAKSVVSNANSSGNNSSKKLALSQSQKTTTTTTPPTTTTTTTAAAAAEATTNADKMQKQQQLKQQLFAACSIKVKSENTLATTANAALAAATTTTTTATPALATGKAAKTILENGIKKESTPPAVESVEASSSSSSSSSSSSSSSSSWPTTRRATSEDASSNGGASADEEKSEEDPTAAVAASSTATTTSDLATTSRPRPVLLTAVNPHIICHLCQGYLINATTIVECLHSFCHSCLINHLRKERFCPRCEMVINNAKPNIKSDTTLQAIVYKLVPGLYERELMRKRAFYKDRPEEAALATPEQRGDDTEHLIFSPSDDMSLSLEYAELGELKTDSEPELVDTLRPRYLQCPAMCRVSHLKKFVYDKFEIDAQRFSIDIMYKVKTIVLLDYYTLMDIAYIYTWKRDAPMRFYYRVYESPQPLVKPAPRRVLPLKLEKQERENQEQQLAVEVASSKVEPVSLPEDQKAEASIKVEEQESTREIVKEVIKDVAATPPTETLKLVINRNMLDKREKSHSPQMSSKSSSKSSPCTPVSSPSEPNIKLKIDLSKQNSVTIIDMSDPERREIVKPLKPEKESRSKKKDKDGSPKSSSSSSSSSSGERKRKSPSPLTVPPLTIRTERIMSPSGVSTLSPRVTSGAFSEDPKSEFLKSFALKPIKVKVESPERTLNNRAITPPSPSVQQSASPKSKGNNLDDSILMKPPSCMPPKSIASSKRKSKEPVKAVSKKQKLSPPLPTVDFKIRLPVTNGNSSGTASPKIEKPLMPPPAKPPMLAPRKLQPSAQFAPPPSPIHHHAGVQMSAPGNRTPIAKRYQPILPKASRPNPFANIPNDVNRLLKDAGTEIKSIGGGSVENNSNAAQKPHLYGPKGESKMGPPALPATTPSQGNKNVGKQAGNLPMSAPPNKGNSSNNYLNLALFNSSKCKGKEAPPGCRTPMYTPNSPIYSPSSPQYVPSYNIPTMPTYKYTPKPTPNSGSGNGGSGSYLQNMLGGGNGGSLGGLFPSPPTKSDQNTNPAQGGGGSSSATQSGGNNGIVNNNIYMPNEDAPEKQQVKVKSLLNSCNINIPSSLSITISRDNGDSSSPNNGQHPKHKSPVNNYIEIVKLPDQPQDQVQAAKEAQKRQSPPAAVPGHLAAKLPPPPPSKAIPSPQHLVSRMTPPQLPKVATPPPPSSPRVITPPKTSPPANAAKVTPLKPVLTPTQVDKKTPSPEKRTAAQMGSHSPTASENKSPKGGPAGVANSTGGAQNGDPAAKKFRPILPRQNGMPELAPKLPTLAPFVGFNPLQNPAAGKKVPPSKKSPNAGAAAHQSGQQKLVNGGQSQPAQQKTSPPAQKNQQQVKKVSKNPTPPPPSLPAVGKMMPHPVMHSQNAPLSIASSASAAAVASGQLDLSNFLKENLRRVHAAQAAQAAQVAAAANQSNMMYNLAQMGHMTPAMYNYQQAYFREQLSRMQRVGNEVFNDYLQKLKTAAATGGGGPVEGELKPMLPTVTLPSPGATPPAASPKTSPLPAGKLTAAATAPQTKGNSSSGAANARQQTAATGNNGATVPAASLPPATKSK
# UniProt Q9VXE9: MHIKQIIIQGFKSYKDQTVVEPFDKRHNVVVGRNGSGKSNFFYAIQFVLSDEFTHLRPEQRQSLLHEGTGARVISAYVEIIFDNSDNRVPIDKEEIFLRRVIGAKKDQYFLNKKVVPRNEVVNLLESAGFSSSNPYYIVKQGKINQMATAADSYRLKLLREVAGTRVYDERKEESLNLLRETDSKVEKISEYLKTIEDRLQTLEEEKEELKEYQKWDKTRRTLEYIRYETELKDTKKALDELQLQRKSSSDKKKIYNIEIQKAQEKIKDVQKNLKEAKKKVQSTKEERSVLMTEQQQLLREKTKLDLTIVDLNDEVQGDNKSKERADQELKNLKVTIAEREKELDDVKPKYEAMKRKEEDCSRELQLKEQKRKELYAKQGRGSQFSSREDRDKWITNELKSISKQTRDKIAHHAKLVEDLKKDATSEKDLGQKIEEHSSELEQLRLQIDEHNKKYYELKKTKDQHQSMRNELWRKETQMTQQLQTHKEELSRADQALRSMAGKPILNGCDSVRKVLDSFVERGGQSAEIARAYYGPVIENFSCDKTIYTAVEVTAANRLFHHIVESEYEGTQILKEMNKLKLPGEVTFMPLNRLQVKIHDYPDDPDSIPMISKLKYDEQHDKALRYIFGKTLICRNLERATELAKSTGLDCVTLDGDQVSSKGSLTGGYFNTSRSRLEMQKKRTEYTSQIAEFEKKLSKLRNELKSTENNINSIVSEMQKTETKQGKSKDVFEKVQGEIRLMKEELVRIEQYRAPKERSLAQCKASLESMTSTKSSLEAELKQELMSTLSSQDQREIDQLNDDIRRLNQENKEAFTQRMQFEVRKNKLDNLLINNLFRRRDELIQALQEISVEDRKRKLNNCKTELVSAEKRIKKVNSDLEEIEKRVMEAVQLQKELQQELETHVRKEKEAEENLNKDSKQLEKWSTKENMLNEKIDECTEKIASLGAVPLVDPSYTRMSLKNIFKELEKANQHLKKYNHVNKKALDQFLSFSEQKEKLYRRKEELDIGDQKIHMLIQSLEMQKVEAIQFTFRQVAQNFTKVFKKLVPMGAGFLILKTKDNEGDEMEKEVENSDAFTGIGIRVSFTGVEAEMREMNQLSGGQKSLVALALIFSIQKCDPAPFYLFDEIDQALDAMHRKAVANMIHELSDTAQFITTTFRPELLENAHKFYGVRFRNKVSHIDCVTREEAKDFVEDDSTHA
# B1: l(1)G0020 (protein, UniProt Q9W3C1 1-1008)
# chain: MVKKKIDNRIRVMIENGVKLGHRTMFIVIGDKARDQVPILYDILTKSTVKARPTVLWCYKNKDEAISNHGKKRAKKIAVGKVDVNEADLFDSFRVATTIHGRYYSETHAVLGRTYGVCVLQDFEALTPNLLARTVETVEGGGLIILLLKTLQSLKQLYTMSMDVHKRFRTEAHQTVTCRFNERLILSLADCKRCLVVNDDLTVLPLSSKTINVEPVNPAGAGRSPNEASLKELKESLLTVQPAGALVNLCKTYDQANAVAQFIEALVDKQLKPPMSLTAARGRGKSAALGLSIAAAVAFGYVNIYVTSPHPENLITLFEFVLKGFDALEYQEHADYTIIRSTNADYKKAIIRINITRSSRQTIQYIAPSDTHLLNAADLLLIDEAAAIPLPLVKKMIGPYLVFMASTINGYEGTGRSLSLKLISQLQKDNNARPPLKLEESIRYQENDDIEKWLINLLCLDASTVPSISSGCPTPDACELYYVDRDALFSYHKAAEAFLHRLVSIYVSSHYKNTPNDLQMMSDAPAHHLFCLLGPVQRMDALPEILVVIQVALEGQISAQSISDSLGRGKKAAGDLIPWNVAEQYGDRDFPKLCGVRIVRVATHPNYQRMGYGKRAIQLLKDYYARKHTNLEDGPVASKDAGKGIEEVEEEELSLLKEQIRPRSRIPTLLQRLHERVPEHVDYIGTSYGLTTELLKFWKNAGFVPVYLSQKSNELTAEHSCIMLHTPNATPWLGLYYQDFRRRVLKLMGKTFREFETKLCLALLKNKSVDTEGSALKVLDKPMLDVYFLPHDLQRLESYARQQSEFRLIIDLLTDIAQLYFQGRIDGLQLDLVQQGILLALGVQGKTVDALGLELNMPGNQLLAKFFDAMKRCNQCFRSVLEEHIEGGMLREADLSKGEELQPLTLSLDKELDQTAQKLSKQQRKELKRLKAEQLDEFQIKGTEEDWSKALETNGTGGGSGLLSVKSGVKRLDGPIETREDGDLAAPLSKKKKKNNPKQRRSQGKSLI
# B2: Sce/dRing (protein, UniProt Q9VB08 1-435)
# chain: MTSLDPAPNKTWELSLYELQRKPQEVITDSTEIAVSPRSLHSELMCPICLDMLKKTMTTKECLHRFCSDCIVTALRSGNKECPTCRKKLVSKRSLRADPNFDLLISKIYPSREEYEAIQEKVMAKFNQTQSQQALVNSINEGIKLQSQNRPQRFRTKGGGGGGGGGGNGNGAANVAAPPAPGAPTAVGRNASNQMHVHDTASNDSNSNTNSIDRENRDPGHSGTSAASAITSASNAAPSSSANSGASTSATRMQVDDASNPPSVRSTPSPVPSNSSSSKPKRAMSVLTSERSEESESDSQMDCRTEGDSNIDTEGEGNGELGINDEIELVFKPHPTEMSADNQLIRALKENCVRYIKTTANATVDHLSKYLAMRLTLDLGADLPEACRVLNFCIYVAPQPQQLVILNGNQTLHQVNDKFWKVNKPMEMYYSWKKT
# B3: Su(z)12 (protein, UniProt Q9NJG9 1-900)
# chain: MAPAKKREKDSNPDGSAANGIIGLTHGAPDASNAGSTVPPTAEGQVKLNGHQQEQELFLQAFEKPTQIYRYLRNRHETNPIFLNRTLSYMKERMSRNNKKRISFQVNSMLESITQKSEAVSQNYLHVIYDSLHEKLPARLDNESGEDLLQEQLLCEAGESVSVETTLYKITRSKRKDSTLDFQELLSKCSQIVYNPKDRVGEHATISIPLQTMRPMGEQHTLYKLLFRIKVLSPSTCNDENAETPPNKRSRPNEKMFGSELILYEKSSGFITEGEYEAMLQPLNSTSIKSFSPKKCTWETMPDSYIPLSLTYDVYQQSPMLKFHLTLSNEQLPEMISAPELQRYVQHLDAVAEMNYNNNNYNNNNNCSGLKNGSGGGNSTVCKTTPEHIQIVYNFMYSNNTRQQTEYTQELNCPWCGLDCLRLYALLKHLKLCHARFNFTYQPAGSGARIDVTINDAYDGSYAGSPYDLAGPSGSSFARTCGPVRRTSVTSLMVCRPRRQKTCLDEFLELDEDEISNQRSYITGHNRLYHHTETCLPVHPKELDIDSEGESDPLWLRQKTIQMIDEFSDVNEGEKELMKLWNLHVMRHGFVGDCQLPIACEMFLDAKGTEIVRKNLYRNFILHMCSLFDYGLIAAETVYKTVQKLQGLLSKYAAGQELMQRQREEQLKYWLDVGMHKKQEDPKTLKSPQKPAPPADQASTSSASTSGSGSGSSSMQPPKRMPAHLKRGSAASSPGVQSKGTENGTNGSNSSSSNSKNVAKKSADQPLSTLANTRERRSEYGQKRNVSGSRLAATPASKRKLSSKDNTVLNKRQRYSDGSPGTGIGNGHGGGSGSGANRNKSNNHSLPATSNNASSSSSNSKRAIARRRSTSERTKASGSTGGGAGGVRTRLSVPAKYERR
# B4: Sfmbt (protein, UniProt Q9VK33 1-1220)
# chain: MNPSELRMMWMSSQYNSERITLEDAATLLGHPTVGLSVMEDLSAHQPTLDMNPMMSLMGGDFTGQAAATAAALGVQPGTLIATNSNNLYGFAHMGGLQQQLLQQSAAAAVFQNYAEAMDNDVENGMVGMAMEAVVDDDDQVYGQRDNNFDDNGSELEPKQEIINIDDFVMMNEDNNSYDGTDFMTSSDKDISQSSSSCMAQMPGSLGVPGVEHDLLVPLPDGLLHHKLLGTTLVPAMGTLNGNAFGNIMVSTENTSSKQMQRTYSTAKGANSTATTATCSASTSSALRSQRKTRKIEPVNRPGLVLKTPIAYRGNIDPSVIPIQKDGMAVCKRCGAIGVKHTFYTKSRRFCSMACARGELYSLVLNTKMEGDQATTSSPDPGAGSESADLPGDQQQSQSDIELDLHAAHIKNANYRFRITDQSKITQLNSFGEPMSMGGDAAANNVQMAADETIAALNGGAVGDATAPGSTEEGASTPNSYLSAAPTPKALRLFKDIYPQDDLPQIPKYERLPVPCPQMEKIISIRRRMYDPTHSYDWLPRLSKENFNAAPVTCFPHAPGCEVWDNLGVGMKVEVENTDCDSIEVIQPGQTPTSFWVATILEIKGYKALMSYEGFDTDSHDFWVNLCNAEVHSVGWCATRGKPLIPPRTIEHKYKDWKDFLVGRLSGARTLPSNFYNKINDSLQSRFRLGLNLECVDKDRISQVRLATVTKIVGKRLFLRYFDSDDGFWCHEDSPIIHPVGWATTVGHNLAAPQDYLERMLAGREAMIEVHEDDATIELFKMNFTFDEYYSDGKTNSFVEGMKLEAVDPLNLSSICPATVMAVLKFGYMMIRIDSYQPDASGSDWFCYHEKSPCIFPAGFCSVNNISVTPPNGYDSRTFTWEGYLRDTGAVAAGQHLFHRIIPDHGFEVGMSLECADLMDPRLVCVATVARVVGRLLKVHFDGWTDEYDQWLDCESADIYPVGWCVLVNHKLEGPPRVAHQQAPKPAPKPKIQRKRKPKKGAAGGKTPTDNNTQSVKSRTIALKTTPHLPKLSIKLELKPEHHNAAFYENNQPEEEGDEEDPDADGDGDGSTSHISEQSTTQSSSDLIAGSGSGSGSASLVTLATGSNKTNSSATNNKYIPRLADIDSSEPHLELVPDTWNVYDVSQFLRVNDCTAHCDTFSRNKIDGKRLLQLTKDDIMPLLGMKVGPALKISDLIAQLKCKVNPGRARSHKTNKSPFL
# B5: NURF-38 (protein, UniProt O77460 1-338)
# chain: MLAKITRSSFYASRAVGRLSGSIPTSPAALASNCRYIQIERKRTKSHEMALYETVEKGAKNSPSYSLYFKNKCGNVISPMHDIPLYANEEKTIYNMVVEVPRWTNAKMEISLKTPMNPIKQDIKKGKLRFVANCFPHKGYIWNYGALPQTWENPDHIEPSTGCKGDNDPIDVIEIGYRVAKRGDVLKVKVLGTIALIDEGETDWKIIAIDVNDPLASKVNDIADVDQYFPGLLRATVEWFKIYKIPDGKPENQFAFNGDAKNADFANTIIAETHKFWQNLVHQSPASGSISTTNITNRNSEHVIPKEEAEKILAEAPDGGQVEEVSDTVDTWHFIHLK
# Biological target: GAGA factor (GAF) (Drosophila melanogaster (endogenous in embryos)) (UniProt Q08605)
# Experiment: affinity purification with mass spectrometry; GAF polyclonal antibody coupled to protein A Sepharose; 10 mg nuclear extract of 0-12 h embryos, HEMG-150, 2 h; washed with HEMG-500 plus 0.1% Nonidet P-40; eluted with 0.1 M glycine pH 2.5; triplicate; mock: protein A Sepharose with no antibody
row,binding,Molecule
1,binds,Acf1 (from UniProt Q9V9T4)
2,binds,Ash2 (from UniProt Q94545 1-556)
3,binds,Bap55 (from UniProt A1ZAS6)
4,binds,Bap60 (from UniProt Q9VYG2 1-515)
5,binds,Bap111 (from UniProt Q9W384)
6,binds,Bap170 (from UniProt A1Z6M0)
7,binds,Barr (from UniProt Q9VIP9)
8,binds,Brm (from UniProt P25439 1-1638)
9,binds,CG8924 (from UniProt E2QD86)
10,binds,Caf1-55/p55 (from UniProt Q24572 1-430)
11,binds,Cap-D2 (from UniProt Q9VAJ1)
12,binds,CtBP (from UniProt O46036 1-476)
13,binds,Dom (from UniProt Q9NDJ2 1-3198)
14,no binding,Dre4 (from UniProt Q8IRG6 1-1083)
15,binds,Dref (from UniProt Q94883)
16,binds,E(bx)/NURF301 (from UniProt Q9W0T1 1-2669)
17,binds,Fs(1)h (from UniProt P13709 1-2038)
18,binds,Glu (from UniProt Q9V3A7)
19,binds,HDAC1 (from UniProt Q94517 1-521)
20,binds,Hpr1 (from UniProt Q9VNI8)
21,binds,Iswi (from UniProt Q24368 1-1027)
22,binds,Kto (from UniProt Q9VW47 1-2531)
23,binds,Lid (from UniProt Q9VMJ7 1-1838)
24,binds,MEP-1 (from UniProt Q0E8J0)

row,binding,Molecule
1,binds,Map60/CP60 (from UniProt A1Z7W7)
2,binds,Mi-2 (from UniProt O97159 1-1982)
3,binds,Nipped-B (from UniProt Q7PLI2 1-2077)
4,binds,Osa (from UniProt Q8IN94 1-2716)
5,binds,Pds5 (from UniProt A1Z8S6)
6,binds weakly,Ph-p (from UniProt P39769 1-1589)
7,binds weakly,Pho (from UniProt Q8ST83 1-520)
8,binds,Polybromo (from UniProt Q9VC36)
9,binds,Ppl-87B (from UniProt P12982 1-302)
10,binds weakly,Psc (from UniProt P35820 1-1601)
11,binds,SA/SCC3 (from UniProt Q9VM62)
12,binds,SAYP (from UniProt Q9VWF2 1-2006)
13,binds,SMC1 (from UniProt Q9VCD8)
14,binds,SMC2 (from UniProt A1Z9V8)
15,binds,SMC3 (from UniProt Q9VXE9)
16,binds,Snr1 (from UniProt Q24090)
17,binds,Sxc/Ogt (from UniProt Q0E9P3)
18,binds,Zeste (from UniProt P09956)
19,binds,B1
20,binds weakly,B2
21,binds,B3
22,binds weakly,B4
23,binds,B5
